Values from PubChem BioAssay AID1259254 (NCATS, 2017)

- Aim: 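Genome-wide screen for genes that prevent DNA re-replication in cancer cells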 (primary screen)
- Cell system: human HCT116 colorectal cancer cells
- Knock-down reagent: single siRNA against human genes
- Time to read-out: 3 days
- Read-out: 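Imaged Hoechst DNA stain sorts each cell into a cycle phase by DNA amount; per plate, G2 fraction set to 0% for non-targeting and 100% for GMNN siRNA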
- Scale: G2 robust z-score and G2 cells, % of GMNN control: higher = more G2 cells, more excess DNA replication
- Rule for the call: 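An siRNA counts as active if its G2 robust z-score lies at least 5 MADs above the screen median; here such calls match roughly 38% of GMNN control or more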
The deposit covers about 59,000 reagents; below is an unselected part. About 1,550 of them (2.6%) count as active. 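G2 share is only a proxy for re-replication; each gene was hit by three separate siRNAs, and active genes were retested.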 The numbers tell different reagents against one gene apart. Further read-outs or replicates are left out here. Reagent sequences are not shown. Not given: the amount of reagent.

ANLN #1 | G2 robust z-score: 3.91; G2 cells, % of GMNN control: 30.5; Outcome: inactive
ANLN #2 | G2 robust z-score: 5.86; G2 cells, % of GMNN control: 44.2; Outcome: active
ANLN #3 | G2 robust z-score: 8.54; G2 cells, % of GMNN control: 63.1; Outcome: active
RSRC2 #1 | G2 robust z-score: 0.0722; G2 cells, % of GMNN control: 3.48; Outcome: inactive
RSRC2 #2 | G2 robust z-score: -1.29; G2 cells, % of GMNN control: -6.09; Outcome: inactive
RSRC2 #3 | G2 robust z-score: -0.927; G2 cells, % of GMNN control: -3.56; Outcome: inactive
FAM90A1 #1 | G2 robust z-score: -0.0975; G2 cells, % of GMNN control: 2.28; Outcome: inactive
FAM90A1 #2 | G2 robust z-score: -1.1; G2 cells, % of GMNN control: -4.76; Outcome: inactive
FAM90A1 #3 | G2 robust z-score: 0.683; G2 cells, % of GMNN control: 7.77; Outcome: inactive
CDK5RAP1 #1 | G2 robust z-score: 2.35; G2 cells, % of GMNN control: 19.5; Outcome: inactive
CDK5RAP1 #2 | G2 robust z-score: -0.0276; G2 cells, % of GMNN control: 2.77; Outcome: inactive
CDK5RAP1 #3 | G2 robust z-score: 2.46; G2 cells, % of GMNN control: 20.3; Outcome: inactive
NSD2 #1 | G2 robust z-score: -0.478; G2 cells, % of GMNN control: -0.395; Outcome: inactive
NSD2 #2 | G2 robust z-score: -0.695; G2 cells, % of GMNN control: -1.93; Outcome: inactive
NSD2 #3 | G2 robust z-score: 6.19; G2 cells, % of GMNN control: 46.5; Outcome: active
AIRIM #1 | G2 robust z-score: -1; G2 cells, % of GMNN control: -4.09; Outcome: inactive
AIRIM #2 | G2 robust z-score: 4.84; G2 cells, % of GMNN control: 37; Outcome: inactive
AIRIM #3 | G2 robust z-score: 0.677; G2 cells, % of GMNN control: 7.73; Outcome: inactive

Just “G2 cells, % of GMNN control”, for 3 of the entries above:
CDK5RAP1 #2	2.77
CDK5RAP1 #3	20.3
NSD2 #1	-0.395
